Source: patent US20050227352

The chains behind the UniProt entries cited, without tags or fusion partners. Residues count along the entry.
UniProt P42003, 1-260: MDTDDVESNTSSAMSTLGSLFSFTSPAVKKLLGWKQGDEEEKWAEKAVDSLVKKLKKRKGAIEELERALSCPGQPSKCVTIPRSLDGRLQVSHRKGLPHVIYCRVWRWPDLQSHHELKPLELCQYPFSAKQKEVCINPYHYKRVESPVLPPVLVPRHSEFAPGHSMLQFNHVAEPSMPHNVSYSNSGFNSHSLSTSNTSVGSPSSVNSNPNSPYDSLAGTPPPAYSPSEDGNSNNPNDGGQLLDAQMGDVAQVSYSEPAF
UniProt P08515, whole entry: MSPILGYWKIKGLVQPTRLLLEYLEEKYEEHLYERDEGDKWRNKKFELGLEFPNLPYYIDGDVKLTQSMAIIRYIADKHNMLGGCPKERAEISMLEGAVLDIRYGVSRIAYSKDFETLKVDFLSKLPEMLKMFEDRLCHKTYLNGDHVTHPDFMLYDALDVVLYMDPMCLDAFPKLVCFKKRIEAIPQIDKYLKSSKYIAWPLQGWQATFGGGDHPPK

How the values were obtained:
[1] = molecular target: T1, GST-Med (Medea, full length) (Drosophila melanogaster) (UniProt O62609); assay: competition with a labelled probe; details: purified recombinant protein, protein details: GST (pGEX-4T2), variant of bam silencer probe (A+B)
T1 sequence (looked up): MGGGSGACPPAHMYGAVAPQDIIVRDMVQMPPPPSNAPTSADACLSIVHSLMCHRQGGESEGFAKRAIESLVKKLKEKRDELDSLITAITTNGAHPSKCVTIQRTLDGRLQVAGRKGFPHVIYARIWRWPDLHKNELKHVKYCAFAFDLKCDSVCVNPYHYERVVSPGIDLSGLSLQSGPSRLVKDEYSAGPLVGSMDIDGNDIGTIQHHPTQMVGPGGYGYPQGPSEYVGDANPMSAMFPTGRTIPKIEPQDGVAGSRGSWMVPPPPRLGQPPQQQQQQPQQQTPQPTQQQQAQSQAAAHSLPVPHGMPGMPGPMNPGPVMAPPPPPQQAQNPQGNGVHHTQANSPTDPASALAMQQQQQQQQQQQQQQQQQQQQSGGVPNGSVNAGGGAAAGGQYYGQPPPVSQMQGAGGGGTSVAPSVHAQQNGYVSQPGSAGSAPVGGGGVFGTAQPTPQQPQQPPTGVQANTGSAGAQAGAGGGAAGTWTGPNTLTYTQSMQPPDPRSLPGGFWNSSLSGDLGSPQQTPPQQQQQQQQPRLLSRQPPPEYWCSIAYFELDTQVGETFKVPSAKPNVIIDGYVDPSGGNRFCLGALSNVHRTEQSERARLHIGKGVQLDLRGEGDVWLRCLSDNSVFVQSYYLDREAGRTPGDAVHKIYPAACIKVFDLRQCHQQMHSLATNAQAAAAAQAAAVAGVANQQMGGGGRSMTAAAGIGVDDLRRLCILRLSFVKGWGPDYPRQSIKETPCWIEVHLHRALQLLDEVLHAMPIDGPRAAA

[2] = molecular target: GST-N-Mad (Mothers against dpp, N-terminal DNA binding domain and linker region) (Drosophila melanogaster) (UniProt P42003); assay: competition with a labelled probe; details: purified recombinant protein, protein details: GST, variant of bam silencer probe (A+B)
GST = GST (UniProt P08515); assay: EMSA; details: GST negative control; purified recombinant protein; protein details: GST alone (pGEX, Amersham Pharmacia); label: Cy5 5'
[3] = molecular target: T1, GST-Med (Medea, full length) (Drosophila melanogaster); assay: EMSA; details: higher affinity than Mad; double shift perhaps from degraded protein; purified recombinant protein; protein details: GST (pGEX-4T2); label: Cy5 5'
[4] = molecular target: GST-N-Mad (Mothers against dpp, N-terminal DNA binding domain and linker region) (Drosophila melanogaster) (UniProt P42003); assay: EMSA; details: lower affinity than Med; 5% native gel, 0.5x TBE, 4 C; purified recombinant protein; protein details: GST; label: Cy5 5'
[5] = 100-fold excess, almost completely competes

Does “CTCCTGAATTCGCAGACAGCGTGGCGTCAGCGATTTCA (double strand) [competitor A+B]” bind ([1]; 100-fold excess unlabeled competes Med binding)?
Result: binds

Does “CTCCTGAATTCGCAGACAGCGTGGCGTCAGCGATTTCA (double strand) [competitor A+B]” bind ([2]; 100-fold excess unlabeled competes Mad binding)?
Result: binds

Which results are given for “CTCCTGAATTTGGCGTCAGCGATTTCA (double strand) [competitor B (site B only)]”?
binding result ([1]; 100-fold excess, competes to much less extent than site A): binds more weakly; binding result [2, 5]: binds

Which results are given for “CTCCTGAATTCGCAGACAGCGTGGCGTCAGCGATTTCA (double strand) [bam silencer probe (A+B)]”?
binding result (GST): no binding; binding result [3]: binds; binding result [4]: binds

Does “CTCCTGAATTCGCAGACAGCGAGCGATTTCA (double strand) [competitor A (site A only)]” bind ([1]; 100-fold excess, effective competitor)?
Result: binds

Does “CTCCTGAATTCGCAGACAGCGAGCGATTTCA (double strand) [competitor A (site A only)]” bind [2, 5]?
Result: binds

For at least one entry, the source does not settle the construct or the ends of the probe. For part of these data: Negatives hold for the conditions tested. For part of these data: Weaker means in comparison with the reference protein, sequence or condition of that experiment. For part of these data: Where a protein sequence is shown, tags need not be part of it.
